# Results from US9914914B2, “Polymerase capable of producing non-DNA nucleotide polymers” (Medical Research Council, priority 2012, dated 2018).
# B1: D4K: Tgo polymerase with V93Q, D141A, E143A, L403P, A485L, P657T, E658Q, K659H, Y663H, E664K, D669A, K671N, T676I; SEQ ID NO:5 (protein)
# chain: MILDTDYITEDGKPVIRIFKKENGEFKIDYDRNFEPYIYALLKDDSAIEDVKKITAERHGTTVRVVRAEKVKKKFLGRPIEVWKLYFTHPQDQPAIRDKIKEHPAVVDIYEYDIPFAKRYLIDKGLIPMEGDEELKMLAFAIATLYHEGEEFAEGPILMISYADEEGARVITWKNIDLPYVDVVSTEKEMIKRFLKVVKEKDPDVLITYNGDNFDFAYLKKRSEKLGVKFILGREGSEPKIQRMGDRFAVEVKGRIHFDLYPVIRRTINLPTYTLEAVYEAIFGQPKEKVYAEEIAQAWETGEGLERVARYSMEDAKVTYELGKEFFPMEAQLSRLVGQSLWDVSRSSTGNLVEWFLLRKAYERNELAPNKPDERELARRRESYAGGYVKEPERGLWENIVYPDFRSLYPSIIITHNVSPDTLNREGCEEYDVAPQVGHKFCKDFPGFIPSLLGDLLEERQKVKKKMKATIDPIEKKLLDYRQRLIKILANSFYGYYGYAKARWYCKECAESVTAWGRQYIETTIREIEEKFGFKVLYADTDGFFATIPGADAETVKKKAKEFLDYINAKLPGLLELEYEGFYKRGFFVTKKKYAVIDEEDKITTRGLEIVRRDWSEIAKETQARVLEAILKHGDVEEAVRIVKEVTEKLSKYEVPTQHLVIHKQITRALNDYKAIGPHVAVAKRLAARGIKIRPGTVISYIVLKGSGRIGDRAIPFDEFDPAKHKYDAEYYIENQVLPAVERILRAFGYRKEDLRYQKTRQVGLGAWLKPKT
# modifications: Polymerase D4YK derived from T. gorgonarius
# Experiment: Aggregate fidelity of XNA synthesis and reverse transcription
# Assay type: biochemical
# Conditions: for Misincorporation error: DNA→XNA→DNA; for Misincorporation error / Total Error: synthesis/RT: HNA Pol6G12/RT521, CeNA PolC7/RT521K, ANA and FANA PolD4K/RT521K, TNA RT521/RT521, LNA PolC7/RT521K; for Total Error: includes Taq amplification error; for aggregate fidelity (probability of errors per position): full DNA→XNA→DNA replication cycle
molecule,measurement,setting,value
a-L-threofuranosyl nucleic acids [TNA],Misincorporation error,,48.5 ×10^−3
same,Total Error,,68.5 ×10^−3
cyclohexenyl nucleic acids [CeNA],Misincorporation error,,4.31 ×10^−3
same,aggregate fidelity (probability of errors per position),,4.3×10^−3
same,Total Error,,9.64 ×10^−3
"2′-O,4′-C-methylene-β-D-ribonucleic acids [LNA]",Misincorporation error,,52.8 ×10^−3
same,aggregate fidelity (probability of errors per position),,5.3×10^−2
same,Total Error,,62.0 ×10^−3
B1,apparent fidelity with ANA,"ANA synthesis, reverse transcription, PCR, sequencing",7.66×10^−3
same,apparent fidelity with FANA,"FANA synthesis, reverse transcription, PCR, sequencing",9.45×10^−3
